According to patent US20090215669A1, “COMPOSITIONS AND METHODS FOR TREATMENT OF DIABETES” (DIA-B TECH LIMITED, priority 2005, published 2009):
At least one read-out could not be matched to a standard name with certainty. Peptide text beside a SMILES is read from it.

Tested on: female Zucker fa/fa rats
Experiment: Intravenous injection of female Zucker fa/fa rats: blood glucose, serum insulin, C-peptide, triglyceride
Type: in vivo, rat
Details: ISF402 4.5 mg/kg vs saline

CC(C)[C@H](N)C(=O)N[C@@H](Cc1c[nH]cn1)C(=O)N[C@H](C(=O)N[C@@H](CC(=O)O)C(N)=O)[C@@H](C)O [ISF402, Val-His-Thr-Asp-NH2] (H-VHTD-NH2) was tested, and the “insulin clearance (AUC molar C-peptide divided by AUC molar insulin)” value was “not altered”.
